In publication PMC5725882:
Results are given in words; binding and its absence hold for the method and conditions named. In cells and extracts the contact can be indirect. Some entries that bind do so weakly or less than the wild type.

Target: T1, SVIP (UniProt Q8NHG7)
T1 sequence: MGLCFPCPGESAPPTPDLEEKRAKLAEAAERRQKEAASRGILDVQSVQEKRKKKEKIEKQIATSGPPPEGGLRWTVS
Assay: pull-down; p97 with SVIP in the presence of different nucleotides; no further details

Which binding does the source give for “full-length wild-type p97 (^FLp97^wt) (from UniProt P55072 1-806) (enzyme)” here?
Its binding is “binds”.
